Test results: patent publication US5422339A, “Peptides having insulin autoantibody but not insulin receptor binding capacity” (Joslin Diabetes Center, Inc., priority 1994, dated 1995)
At least one peptide structure holds a part that was inferred or is arguable (an end, a ring closure or a residue). Positions of bridges follow the written chain, without caps; N, C: chain ends. Chains are numbered I, II in the order given. No end group written: not given here.

System: human insulin autoantibodies
Assay: Competition with 125I-human insulin for binding to human insulin autoantibodies (competitive binding radioassay)
Settings: relative to human insulin
Protocol: Insulin autoantibodies isolated from sera of well-characterized first-degree relatives of patients with Type I diabetes mellitus were analyzed in comparative studies by competition with a series of insulins from different species and with insulin analogues. Insulin binding activity was detected using a competitive binding radioassay and expressed in nU of insulin precipitated per ml of sera (1 nU/ml=7.18 fmole/L).

In the case of “I: AANQHLCGSHLVEALYLVCGERGFFYSPKA / II: GIVEQCCHNTCSLYQLENYCN (disulfide I:7-II:7, I:19-II:20, II:6-II:11) [chicken insulin]”, the “affinity / recognition by human insulin autoantibodies” value (Type I diabetes-associated autoantibodies) is reported as “reduced” and the “reduction of affinity for human insulin autoantibodies” value is reported as ~ 20 fold.
